Among the data in PubChem BioAssay AID493014 (National Center for Advancing Translational Sciences (NCATS), 2011) are AC50 values, retold here.

Each structure is given as a SMILES string. The list shows a part of the results. Shown are side measurements of this screen, not its main read-out; they come without a call. The list favours compounds with an active or inconclusive main result. Words in brackets tell the shape of the fitted curve; partial curves, single points and poor fits give uncertain potencies.

This experiment is described as follows: qHTS Assay to Find Inhibitors of Chronic Active B-Cell Receptor Signaling. Conditions: ABC-DLBCL IkBa-CBG/CBR reporter, luminescence ratio (green luciferase fused to IkBa over red control in TMD8 lymphoma cells), 4 h. The procedure, abridged:
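TMD8 human ABC-DLBCL cells with doxycycline-inducible IκBα–green luciferase fusion and unfused red luciferase, in 0.5% FBS medium; compounds up to 46 uM, 4 h at 37C. Green/red luminescence ratio, filter-overlap corrected, fitted to concentration-response curves.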

[1] abbreviates: measured here: CBR red luminescence, cell number.
Setting [2] is: measured here: IkBa-CBG green luminescence.

As for `O=C(CN1C2=NCCCN2c2ccccc21)c1ccc(Cl)cc1Cl`, under setting [1], the half-maximal activity concentration (AC50) is 20.6 µM [falling, single point]. Turning to `O=S(=O)(c1ccc(Cl)c(NC(=S)N/N=C/c2ccc(O)cc2)c1)N1CCOCC1`, the AC50 under setting [1] is 14.6 µM [falling, partial curve].

For `O=C(CSc1nnc(-c2cccs2)o1)N1CCCCC1`, under setting [1], the AC50 was 3.66 µM [falling, partial curve].

Regarding `O=C(NCc1ccco1)c1ccc(Cn2c(=O)c3ccccc3n(Cc3ccc(Cl)cc3)c2=O)cc1`, under setting [1], the AC50 is 2.31 µM [rising, partial curve, poor fit]. For `O=C(Nc1ccccc1)c1cn2ccccc2n1`, the AC50 under setting [1] is 0.447 µM [falling, full curve]. Regarding `C=CCSc1n[nH]c(-c2ccccc2)n1`, the concentration at half-maximal activity (AC50) under setting [1] is 0.184 µM [rising, full curve, poor fit]. As for `O=C(c1cc2c(s1)-c1ccccc1OC2)N1CCc2ccccc2C1`, under setting [1], the half-maximal activity concentration (AC50) was 23.1 µM [falling, single point]. Take `CN1C(C(=O)NCC2CC2)CC2Cn3c(nc4cc(Cl)c(Cl)cc43)C21` (stereo not drawn): the AC50 by setting is: under setting [1], 35.5 µM [falling, single point]; under setting [2], 20 µM [rising, partial curve, poor fit]. `O=C(Cn1nnc(-c2ccccc2)n1)N1CCN(c2ccc(F)cc2)CC1`: the AC50 under setting [1] was 0.562 µM [rising, full curve, poor fit].

In the case of `Cc1ccccc1C(=O)Nc1nc(SCc2ccc(Cl)cc2)n[nH]1`, the AC50 under setting [1] is 0.631 µM [rising, full curve, poor fit]. Consider `O=C(NC1CC1)c1ccc2c(c1)ncn2C1CCCC1`, for which the concentration at half-maximal activity (AC50) under setting [1] is 11.2 µM [falling, partial curve]. Same read-out and setting: to `O=C(CN1CCN(c2ccc(F)cc2)CC1)Nc1cccnc1Cl` belongs 10 µM [falling, partial curve]. As for `O=C(Nc1nccs1)c1ccc(COc2ccccc2Cl)o1`, the AC50 under setting [1] was 35.5 µM [falling, single point]. As to `Cc1csc(NC(=O)c2ccc(C(=O)Nc3nc(C)cs3)cc2)n1`, the AC50 by setting is: under setting [1], 1.26 µM [falling, full curve]; under setting [2], 0.794 µM [rising, full curve, poor fit].

For the compound `CCOc1cc(/C=N/NC(N)=O)ccc1OCC(=O)Nc1ccc(C)c(C)c1`, under setting [1], the AC50 was 0.251 µM [rising, full curve, poor fit]. On the same count and under the same terms, the result for `O=C(CC(Nc1ccc(F)cc1)C(=O)O)c1ccccc1` (stereo not drawn) reads 16.4 µM [falling, single point]. Still for that read-out and setting: the result for `CCc1cccc(NC(=O)C2CCCN2S(=O)(=O)c2ccc3c(c2)n(C)c(=O)c(=O)n3C)c1` (stereo not drawn) reads 35.5 µM [rising, single point]; that for `Cc1ccccc1N(CC(=O)NC(C)(C)C)C(=O)CCC(=O)Nc1nccs1`, 11.2 µM [falling, partial curve, poor fit]; that for `COc1ccc(S(=O)(=O)NC2CC(C)(C)NC(C)(C)C2)c(C)c1C`, 8.2 µM [rising, partial curve, poor fit]. On to `CCOC(=O)C1CCCN(C(=O)CN2C(=O)c3ccccc3S2(=O)=O)C1` (stereo not drawn), for which the AC50 under setting [1] is 20.6 µM [rising, single point]. For the compound `CCc1nc(C)c(C(=O)N2CCCC(C(=O)Nc3cccc(-c4cccc(C)c4)c3)C2)o1` (stereo not drawn), the AC50 under setting [1] was 22.4 µM [falling, single point]. With `C(=C\c1nc2ccccc2[nH]1)/c1ccccc1`, the concentration at half-maximal activity (AC50) under setting [1] is 5.01 µM [falling, full curve, poor fit]. The same measure, in the same setting: to `COc1ccc(C2NC(=S)N(c3ccccc3)C(C)=C2C(=O)Nc2ccccc2)cc1` (stereo not drawn) belongs 5.8 µM [falling, full curve, poor fit].

Regarding `CCc1nnc(NS(=O)(=O)c2ccc(N=Cc3c(C)[nH]n(-c4cccc(Cl)c4)c3=O)cc2)s1`, the AC50 runs as follows: under setting [1], 0.206 µM [rising, full curve, poor fit]; under setting [2], 20.6 µM [rising, single point]. Regarding `CCn1c2ccccc2c2nnc(SCC(=O)NCc3cccs3)nc21`, the concentration at half-maximal activity (AC50) under setting [1] is 35.5 µM [rising, partial curve, poor fit]. On to `N#CC1(C#N)C(c2ccccc2)OC23CCCCC2C1(C#N)C(=N)O3` (stereo not drawn), for which, under setting [1], the AC50 was 32.6 µM [falling, single point].

On to `FC(F)Oc1ccc(/C=N/N2CCCCC2)c(OC(F)F)c1`, for which the AC50 under setting [1] was 10 µM [rising, partial curve]. The same measure, in the same setting: the result for `O=C(NCCc1ccc(Cl)cc1)c1ccc2nccnc2c1` reads 6.31 µM [falling, partial curve]; that for `CNC(=O)c1c(NC(=O)c2ccco2)sc2c1CCCC2`, 0.282 µM [rising, full curve, poor fit]; that for `Cc1ccccc1-n1nc(C)c(N=O)c1N`, 1.41 µM [rising, full curve, poor fit]. For the compound `CCOC(=O)c1ccc(N/C=C2/CCCC(C)C2=O)cc1` (stereo not drawn), the concentration at half-maximal activity (AC50) under setting [1] is 0.326 µM [falling, full curve]. On to `CC(=C\c1ccccc1)/C=C1/SC(=S)N(CCCC(=O)O)C1=O`, for which the AC50 under setting [1] is 0.398 µM [falling, full curve].

On to `CC(C)(C)c1ccc(OCC(=O)Nc2ccc(C(=O)Nc3ccccc3C(=O)O)cc2)cc1`, for which, under setting [1], the concentration at half-maximal activity (AC50) was 20 µM [falling, partial curve, poor fit]. Same read-out and setting: the result for `CC(=O)/C=C(\C)Nc1ccccc1O` reads 35.5 µM [falling, single point]; that for `C/C(=N/NC(=O)c1ccc2c(c1)OCO2)c1ccc(NC(=O)C(F)(F)F)cc1`, 7.31 µM [falling, partial curve]. `CC(OC(=O)CNC(=O)C12CC3CC(CC(C3)C1)C2)C(=O)Nc1ccc(N2CCOCC2)cc1` (stereo not drawn): the AC50 under setting [1] was 10.3 µM [rising, single point]. On the same count and under the same terms, to `COc1ccc2c(c1)c(C(C)=O)c(C)n2CCc1ccc(OC)c(OC)c1` belongs 5.62 µM [rising, single point]; to `O=C(CCC1CCCN(C(=O)CC2=CCCCC2)C1)N1CCN(c2ccccn2)CC1` (stereo not drawn), 6.31 µM [rising, partial curve, poor fit]; to `CCOC(=O)c1ccc(Nc2nc(N)c3cc(OC)c(OC)cc3n2)cc1`, 12.6 µM [falling, single point]. On to `O=C(CSc1ccc(F)cc1)Nc1nnc(-c2ccco2)o1`, for which the half-maximal activity concentration (AC50) under setting [1] was 16.4 µM [falling, single point].
